Reference: paper PMC4007430
Results are given in words; binding and its absence hold for the method and conditions named. Binding can be weak; no strength is given.

By UniProt entry, the sequences of proteins in these tests, tags left out. Where a name states a change or a piece, a line headed by the entry shows the natural chain unless it says otherwise.
UniProt O00590: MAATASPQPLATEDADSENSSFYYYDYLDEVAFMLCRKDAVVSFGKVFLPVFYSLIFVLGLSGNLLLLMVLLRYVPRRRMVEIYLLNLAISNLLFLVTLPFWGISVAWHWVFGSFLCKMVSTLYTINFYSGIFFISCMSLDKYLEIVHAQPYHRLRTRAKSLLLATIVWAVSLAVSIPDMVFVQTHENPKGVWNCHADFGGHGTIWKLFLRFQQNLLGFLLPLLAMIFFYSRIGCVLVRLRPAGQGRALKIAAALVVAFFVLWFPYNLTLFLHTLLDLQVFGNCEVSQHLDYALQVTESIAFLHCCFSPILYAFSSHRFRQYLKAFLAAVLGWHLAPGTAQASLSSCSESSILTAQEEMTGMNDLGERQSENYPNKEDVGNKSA

Assays:
Assay in all cases: flow cytometry on cells; Alexa Fluor 647-labelled chemokine added to HEK 293 cells expressing HA-ACKR2 or mutants, incubated at 37 °C in 5% CO2 (binding and uptake), washed in ice-cold FACS buffer, mean fluorescence intensity; in some panels cells were pretreated with sodium chlorate (30-150 mM), siRNA to TPST1 and/or TPST2, or 2 μM staphopain A; only the binder purified
[1] = target: HA-ACKR2 mutant 5 (second tyrosine mutated, YFYDY) (human) (UniProt O00590)
[2] = target: HA-ACKR2 mutant 6 (only first tyrosine present, YFFDF) (human) (UniProt O00590)
[3] = target: HA-ACKR2 mutant 7 (only second tyrosine present, FYFDF) (human) (UniProt O00590)
[4] = target: HA-ACKR2 mutant 8 (only third tyrosine present, FFYDF) (human) (UniProt O00590)
[5] = target: HA-ACKR2 mutant 9 (only fourth tyrosine present, FFFDY) (human) (UniProt O00590)

binding [1]: binds
binding [2]: binds
binding [3]: binds
binding [4]: binds
binding [5]: binds
B1: CCL22 labeled with Alexa Fluor 647 (ligand, UniProt O00626 25-93)
chain: GPYGANMEDSVCCRDYVRYRLPLRVVKHFYWTSDSCPRPGVVLLTFRDKEICADPRVPWVKMILNKLSQ
modifications: Alexa Fluor 647 label (site not stated)
